Experimental data: PubChem BioAssay AID1347076 (National Center for Advancing Translational Sciences (NCATS), 2019)
The campaign covered roughly 400,000 compounds. About 13,000 (3.2%) were called active. Inconclusive results, whose numbers are uncertain, are shown with a selection of clear calls. Calls follow the shape of the dose curve; as a rule, active = well fitted cell-killing curve with a large enough effect; inconclusive = small, poorly fitted or top-dose-only effect, or effect the other way; inactive = flat fitted curve, though single readings scatter. Potencies beside an inconclusive call are fits to weak or partial responses and may not hold up.

Test: qHTS assay for MDR1-selective chemotherapeutics: Primary screen using the drug-selected MDR subline cells KB-V1; also: nearly all actives have a fitted effect of over 60% in size
Settings: KB-V1 MDR cells viability, CellTiter-Glo, 72 h; activity change, negative = cytotoxicity: at 46.1 µM (top of the series)
Summary of the method: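 Drug-selected KB-V1 cells, grown in DMEM lacking phenol red with 10% FBS, receive compound titrations; after three days at 37 degrees C, surviving cell ATP is quantified by CellTiter-Glo luminescence and responses normalized and curve-fitted.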
% is scaled to controls: 0 for no effect and ±100 for the full control effect; potency is read from the fitted curve at half-maximal effect.

| Structure (SMILES) | Potency | activity change, negative = cytotoxicity |
| --- | --- | --- |
| CCN1CCN(c2nc(-c3ccccn3)nc3ccccc23)CC1 | active: 5.17 µM |  |
| COCCNC(=O)C(c1ccccc1C)N(C(=O)Cn1nnc2ccccc21)c1cccnc1 (configuration not stated) |  | inactive: 13.8% |
| OC(COc1ccccc1CNCc1cccnc1)CN1CCc2ccccc2C1 (configuration not stated) | inconclusive: 4.11 µM [cytotoxic, partial curve, poor fit] |  |
| Cc1cccc(C(=O)Nc2nccs2)c1[N+](=O)[O-] | inconclusive: 20.6 µM [cytotoxic, single point] |  |
| COc1ccc(NC(=S)Nc2cccnc2)c(OC)c1 |  | inactive: -0.212% |
| CCOC(=O)C(CN1CCCC1)c1ccccc1 (configuration not stated) | inconclusive: 1.46 µM [cytotoxic, full curve] |  |
| CC(=O)Nc1ccc2c3c(cccc13)C(=O)N(c1ccccc1)C2=O |  | inactive: 19.7% |
| CC1CCCCC1NC(=O)c1cccc(S(=O)(=O)N2CCN(Cc3ccccc3)CC2)c1 (configuration not stated) | inconclusive: 3.26 µM [cytotoxic, full curve] |  |
| Cc1ccc(S(=O)(=O)N2CCN(c3ccccc3)CC2)s1 |  | inactive: 8.34% |
| N/C(=N\OC(=O)c1ccc(Cl)cc1Cl)c1cccnc1 | inconclusive: 29.1 µM [cytotoxic, single point] |  |
| CCCn1nc(C(=O)Nc2cccc(S(=O)(=O)N(C)c3ccccc3)c2)c2ccccc2c1=O |  | inactive: -6.22% |
| O=C(c1[nH]c(C(F)(F)F)nc1-c1ccccc1)N1CCN(Cc2c(F)cccc2Cl)CC1 |  | inactive: -4.46% |
| O=C(NCCC1=CCCCC1)C1CCN(Cc2cnn(-c3ccccc3)c2-n2cccc2)CC1 | inconclusive: 10.3 µM [cytotoxic, partial curve, poor fit] |  |
| Cc1cccc(NC(=O)COc2coc(CN3CCN(c4ccccc4)CC3)cc2=O)c1C |  | inactive: -24.1% |
| CC1(C)C2CCC1(C)C(OCCNCCOC(=O)Nc1ccccc1)C2 (configuration not stated) |  | inactive: -28.5% |
| CN(C)c1ccc(/C=N/NC(=O)CNC(=O)c2ccncc2)cc1 |  | inactive: 13.9% |
| Cc1ccc(-n2nc3c(c2NC(=O)c2cccs2)CS(=O)(=O)C3)c(C)c1 |  | inactive: -8.73% |
| Cc1ccccc1Cn1cc(S(=O)(=O)CC(=O)N2CCCCC2)c2ccccc21 | inconclusive: 29.1 µM [cytotoxic, single point] |  |
| Cc1cccc(C(=O)Nc2nc3nc(-c4ccccc4)cc(=O)n3[nH]2)c1 |  | inactive: 4.37% |
| COc1ccc(-c2ccc(SCC(=O)Nc3cc(C)on3)nn2)cc1OC | inconclusive: 16.4 µM [cytotoxic, single point] |  |
| Cc1nc(-c2ccccc2)[nH]c(=O)c1Oc1ccc(Cl)cc1Cl | inconclusive: 18.4 µM [cytotoxic, single point] |  |
| CCOC(=O)CC(NC(=O)c1cc2cc(Br)cc(OC)c2oc1=O)c1ccc(OC)cc1 (configuration not stated) |  | inactive: -25.1% |

Two entries from above, comma-delimited.
Structure (SMILES),Potency,"activity change, negative = cytotoxicity"
OC(COc1ccccc1CNCc1cccnc1)CN1CCc2ccccc2C1 (configuration not stated),"inconclusive: 4.11 µM [cytotoxic, partial curve, poor fit]",
Cc1cccc(C(=O)Nc2nccs2)c1[N+](=O)[O-],"inconclusive: 20.6 µM [cytotoxic, single point]",
